# In the supplement of paper PMC8728848:
# This is one part of the list.
# B1: CLC (Homo sapiens), Q9UBD9 (protein)
# chain: MDLRAGDSWGMLACLCTVLWHLPAVPALNRTGDPGPGPSIQKTYDLTRYLEHQLRSLAGTYLNYLGPPFNEPDFNPPRLGAETLPRATVDLEVWRSLNDKLRLTQNYEAYSHLLCYLRGLNRQAATAELRRSLAHFCTSLQGLLGSIAGVMAALGYPLPQPLPGTEPTWTPGPAHSDFLQKMDDFWLLKELQTWLWRSAKDFNRLKKKMQPPAAAVTLHLGAHGF
# What was measured:
# Experiment in all cases: glycan array binding signal (z-score within array); higher = stronger binding
# Details in all cases: glycan notation: IUPAC condensed, linker removed
# [1] = biological target: Gal(b1-3)[Fuc(a1-4)]GlcNAc(b1-3)Gal(b1-4)[Fuc(a1-3)]GlcNAc
# How it was run: (§1)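 From the Consortium for Functional Glycomics database, 3228 arrays were curated, keeping only those whose protein sequence was available. Binding is given as a within-array Z-score averaged across arrays sharing a protein sequence and across linkers. Negative Z-scores can be read as non-binding.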
# [2] = biological target: Gal(b1-3)[GlcNAc(b1-6)]GalNAc
# How it was run: as §1
# [3] = biological target: Gal(b1-3)[Neu5Ac(a2-6)]GalNAc
# How it was run: as §1
# [4] = biological target: Gal(b1-3)[Neu5Ac(a2-6)]GlcNAc(b1-6)Gal(b1-4)Glc
# How it was run: as §1
# [5] = biological target: Gal(b1-3)[Neu5Ac(b2-6)]GalNAc
# How it was run: as §1
# [6] = biological target: Gal(b1-4)GalNAc(a1-3)[Fuc(a1-2)]Gal(b1-4)GlcNAc
# How it was run: as §1
# [7] = biological target: Gal(b1-4)GalNAc(b1-3)[Fuc(a1-2)]Gal(b1-4)GlcNAc
# How it was run: as §1
# Gal(b1-4)Glc = biological target: Gal(b1-4)Glc
# How it was run: as §1
# Gal(b1-4)Glc6S = biological target: Gal(b1-4)Glc6S
# How it was run: as §1
# Gal(b1-4)GlcNAc = biological target: Gal(b1-4)GlcNAc
# How it was run: as §1
# [8] = biological target: Gal(b1-4)GlcNAc(a1-6)Gal(b1-4)GlcNAc
# How it was run: as §1
# [9] = biological target: Gal(b1-4)GlcNAc(b1-2)Man(a1-3)[Gal(b1-4)GlcNAc(b1-2)Man(a1-6)]Man(b1-4)GlcNAc(b1-4)GlcNAc
# How it was run: as §1
# [10] = biological target: Gal(b1-4)GlcNAc(b1-3)Gal(b1-3)GlcNAc
# How it was run: as §1
# [11] = biological target: Gal(b1-4)GlcNAc(b1-3)Gal(b1-4)Glc
# How it was run: as §1
# [12] = biological target: Gal(b1-4)GlcNAc(b1-3)Gal(b1-4)GlcNAc
# How it was run: as §1
# [13] = biological target: Gal(b1-4)GlcNAc(b1-3)Gal(b1-4)GlcNAc(b1-3)Gal(b1-4)GlcNAc
# How it was run: as §1
# [14] = biological target: Gal(b1-4)GlcNAc(b1-3)Gal(b1-4)[Fuc(a1-3)]GlcNAc(b1-3)Gal(b1-4)[Fuc(a1-3)]GlcNAc
# How it was run: as §1
# [15] = biological target: Gal(b1-4)GlcNAc(b1-3)GalNAc
# How it was run: as §1
# [16] = biological target: Gal(b1-4)GlcNAc(b1-3)[Gal(b1-4)GlcNAc(b1-6)]Gal(b1-4)GlcNAc
# How it was run: as §1
# [17] = biological target: Gal(b1-4)GlcNAc(b1-3)[GlcNAc(b1-6)]Gal(b1-4)GlcNAc
# How it was run: as §1
# [18] = biological target: Gal(b1-4)GlcNAc(b1-6)Gal(b1-4)GlcNAc
# How it was run: as §1
# [19] = biological target: Gal(b1-4)GlcNAc(b1-6)Gal(b1-4)GlcNAc(b1-6)GalNAc
# How it was run: as §1
# [20] = biological target: Gal(b1-4)GlcNAc(b1-6)GalNAc
# How it was run: as §1
# [21] = biological target: Gal(b1-4)GlcNAc(b1-6)[Gal(b1-3)]GalNAc
# How it was run: as §1
# Gal3S(b1-3)GalNAc = biological target: Gal3S(b1-3)GalNAc
# How it was run: as §1
# Gal3S(b1-3)GlcNAc = biological target: Gal3S(b1-3)GlcNAc
# How it was run: as §1
# [22] = biological target: Gal3S(b1-3)[Fuc(a1-4)]GlcNAc
# How it was run: as §1
# Gal3S(b1-4)Glc = biological target: Gal3S(b1-4)Glc
# How it was run: as §1
# Gal3S(b1-4)Glc6S = biological target: Gal3S(b1-4)Glc6S
# How it was run: as §1
# Gal3S(b1-4)GlcNAc = biological target: Gal3S(b1-4)GlcNAc
# How it was run: as §1
# Gal3S(b1-4)GlcNAc6S = biological target: Gal3S(b1-4)GlcNAc6S
# How it was run: as §1
# [23] = biological target: Gal3S(b1-4)[Fuc(a1-3)]Glc
# How it was run: as §1
# Gal3S4S(b1-4)GlcNAc = biological target: Gal3S4S(b1-4)GlcNAc
# How it was run: as §1
# Gal3S6S(b1-4)GlcNAc = biological target: Gal3S6S(b1-4)GlcNAc
# How it was run: as §1
# Gal3S6S(b1-4)GlcNAc6S = biological target: Gal3S6S(b1-4)GlcNAc6S
# How it was run: as §1
# Gal4S(b1-4)GlcNAc = biological target: Gal4S(b1-4)GlcNAc
# How it was run: as §1
# Gal4S6S(b1-4)GlcNAc = biological target: Gal4S6S(b1-4)GlcNAc
# How it was run: as §1
# Gal6S(b1-4)Glc = biological target: Gal6S(b1-4)Glc
# How it was run: as §1
# Gal6S(b1-4)Glc6S = biological target: Gal6S(b1-4)Glc6S
# How it was run: as §1
# Gal6S(b1-4)GlcNAc = biological target: Gal6S(b1-4)GlcNAc
# How it was run: as §1
# Gal6S(b1-4)GlcNAc6S = biological target: Gal6S(b1-4)GlcNAc6S
# How it was run: as §1
# GalNAc(a1-3)Gal = biological target: GalNAc(a1-3)Gal
# How it was run: as §1
# GalNAc(a1-3)GalNAc = biological target: GalNAc(a1-3)GalNAc
# How it was run: as §1
# GalNAc(b1-3)Gal = biological target: GalNAc(b1-3)Gal
# How it was run: as §1
# [24] = biological target: GalNAc(b1-3)Gal(a1-4)Gal(b1-4)GlcNAc
# How it was run: as §1
binder,measurement,setting,value
B1,glycan array binding signal (z-score),[1],0.519
same,glycan array binding signal (z-score),[2],-0.11
same,glycan array binding signal (z-score),[3],0.212
same,glycan array binding signal (z-score),[4],0.381
same,glycan array binding signal (z-score),[5],0.386
same,glycan array binding signal (z-score),[6],-0.814
same,glycan array binding signal (z-score),[7],-0.903
same,glycan array binding signal (z-score),Gal(b1-4)Glc,-0.607
same,glycan array binding signal (z-score),Gal(b1-4)Glc6S,-0.014
same,glycan array binding signal (z-score),Gal(b1-4)GlcNAc,-0.608
same,glycan array binding signal (z-score),[8],0.093
same,glycan array binding signal (z-score),[9],-0.216
same,glycan array binding signal (z-score),[10],0.926
same,glycan array binding signal (z-score),[11],1.25
same,glycan array binding signal (z-score),[12],0.581
same,glycan array binding signal (z-score),[13],-0.565
same,glycan array binding signal (z-score),[14],-0.015
same,glycan array binding signal (z-score),[15],-0.317
same,glycan array binding signal (z-score),[16],-0.7
same,glycan array binding signal (z-score),[17],0.848
same,glycan array binding signal (z-score),[18],-0.353
same,glycan array binding signal (z-score),[19],-0.128
same,glycan array binding signal (z-score),[20],-0.475
same,glycan array binding signal (z-score),[21],0.394
same,glycan array binding signal (z-score),Gal3S(b1-3)GalNAc,-0.144
same,glycan array binding signal (z-score),Gal3S(b1-3)GlcNAc,0.003
same,glycan array binding signal (z-score),[22],0.202
same,glycan array binding signal (z-score),Gal3S(b1-4)Glc,-0.02
same,glycan array binding signal (z-score),Gal3S(b1-4)Glc6S,1.01
same,glycan array binding signal (z-score),Gal3S(b1-4)GlcNAc,-0.271
same,glycan array binding signal (z-score),Gal3S(b1-4)GlcNAc6S,2.02
same,glycan array binding signal (z-score),[23],-0.477
same,glycan array binding signal (z-score),Gal3S4S(b1-4)GlcNAc,0.949
same,glycan array binding signal (z-score),Gal3S6S(b1-4)GlcNAc,0.527
same,glycan array binding signal (z-score),Gal3S6S(b1-4)GlcNAc6S,11.1
same,glycan array binding signal (z-score),Gal4S(b1-4)GlcNAc,0.113
same,glycan array binding signal (z-score),Gal4S6S(b1-4)GlcNAc,2.49
same,glycan array binding signal (z-score),Gal6S(b1-4)Glc,0.061
same,glycan array binding signal (z-score),Gal6S(b1-4)Glc6S,1.8
same,glycan array binding signal (z-score),Gal6S(b1-4)GlcNAc,-0.11
same,glycan array binding signal (z-score),Gal6S(b1-4)GlcNAc6S,1.68
same,glycan array binding signal (z-score),GalNAc(a1-3)Gal,-0.701
same,glycan array binding signal (z-score),GalNAc(a1-3)GalNAc,0.257
same,glycan array binding signal (z-score),GalNAc(b1-3)Gal,-0.876
same,glycan array binding signal (z-score),[24],-1.06

# A second format for part of the listing above.
binder	measurement	setting	value
B1	glycan array binding signal (z-score)	Gal(b1-4)Glc6S	-0.014
same	glycan array binding signal (z-score)	Gal(b1-4)GlcNAc	-0.608
